Experimental data as given in patent US20110105565A1, “WATER SOLUBLE SMALL MOLECULE INHIBITORS OF THE CYSTIC FIBROSIS TRANSMEMBRANE CONDUCTANCE REGULATOR” (THE REGENTS OF THE UNIVERSITY OF CALIFORNIA, priority 2008, published 2011).
Some of these results come from one statement about several compounds together.

Tests used:
[1] = tested on: embryonic kidneys; assay: Embryonic kidney organ culture model (8-Br-cAMP-induced cysts); format: cell-based, mouse; settings: 20 μM
Source text: An embryonic kidney organ culture model was used to further evaluate compounds T08 and G07. Embryonic kidney culture models permit organotypic growth and differentiation of renal tissue in defined media without the confounding effects of circulating hormones and glomerular filtration (see, e.g., Magenheimer et al., J Am Soc Nephrol 17: 3424-37, 2006; and Gupta et al., Kidney Int 63: 365-376, 2003). In addition, the early mouse kidney tubule in this model has an intrinsic capacity to secrete fluid in response to cAMP by a CFTR-dependent mechanism (Magenheimer et al.), allowing the evaluation of CFTR inhibitors in particular.
Mouse embryos were obtained at embryonic day 13.5 (E13.5). Metanephroi were dissected and placed on transparent Falcon […] porous cell culture inserts. […]
Kidneys were photographed using a Nikon inverted microscope (Nikon TE 2000-S) equipped with 2× objective lens, 520 nm bandpass filter, and high-resolution PixeLINK color CCD camera. […] Cyst sizes in micrographs of metanephroi were determined using MATLAB 7.0 software. […] Fractional cyst area was calculated as total cyst area divided by total kidney area. […]

[2] = tested on: MDCK cells; assay: MDCK cell cyst model of polycystic kidney disease; format: cell-based, Canine; settings: 10 μM, forskolin 10 μM, cyst diameter
Source text: An MDCK cell model of polycystic kidney disease was used to screen CFTR inhibitors of the thiazolidinone and glycine hydrazide classes for reducing cyst formation and expansion. […] Culture of MDCK cells in three-dimensional collagen gels produces a polarized, single-layer, thinned epithelium surrounding a fluid-filled space, apical […] microvilli, a solitary cilium, and apical tight junctions (see, e.g., McAteer et al., Scan Elect Microsc (Pt 3): 1135-1150, 1986; McAteer et al., Scanning Microsc 2: 1739-1763, 1988; and Taide et al., Eur J Clin Invest 26: 506-513, 1996). […]
[…] IC50 values for T08, T11, and T16 were determined by short-circuit analysis performed according to methods described herein. […] IC50 values for G06 and G07 were determined by short-circuit current analysis performed according to methods described herein.
Medium containing forskolin and test compounds was changed every 12 h. At day 6, cysts (with diameters >50 μm) and non-cyst cell colonies were counted by phase-contrast light microscopy at 20× magnification (546 nm monochromatic illumination) using a Nikon TE 2000-S inverted microscope. […] For determination of cyst growth, cyst diameters were measured using Image J software. At least 10 cysts/well and 3 wells/group were measured for each condition.

Row | Molecule | apoptotic index in kidneys [1] | inhibition of cyst growth [2]
1 | O=C1/C(=C/c2ccc(-c3nn[nH]n3)cc2)SC(=S)N1c1cccc(C(F)(F)F)c1 [Compound 6, (Z)-5-(4-(1H-tetrazol-5-yl)benzylidene)-2-thioxo-3-(3-(trifluoromethyl)phenyl)thiazolidin-4-one] | < 1% | –
2 | N-2-naphthalenyl-2-hydroxyethyl-[(3,5-dibromo-2,4-dihydroxyphenyl)methylene]phenylglycinehydrazide [Compound G07] | – | > 70%
